No constants are given. Whether binding was seen depends on the method and setting. Binding seen in cells or lysates may run through a third protein. Some entries that bind do so weakly or less than the wild type.
Key:
[1] = target: mouse PTP-ζ (PTP-β/ζ) of mouse brain membrane fractions (mouse) (UniProt B9EKR1); assay: co-immunoprecipitation of mIL-34 with PTP-ζ by anti-PTP-ζ 3F8 from mouse brain membrane fraction, western blot for IL-34 [panel C]
[2] = target: mouse PTP-ζ (PTP-β/ζ) of mouse brain membrane fractions (mouse) (UniProt B9EKR1); assay: pull-down / immunoprecipitation from OG-solubilized mouse brain membrane fraction, SDS-PAGE, silver stain and western blot [panel A]
[3] = target: mouse PTP-ζ (PTP-β/ζ) of mouse brain membrane fractions (mouse) (UniProt B9EKR1); assay: reciprocal co-immunoprecipitation with anti-PTP-ζ 3F8 from mouse brain membrane lysate, western blot
[4] = target: T1, mouse tenascin-R (TN-R) of mouse brain membrane fractions (mouse) (UniProt Q8BYI9); assay: as above
T1 sequence: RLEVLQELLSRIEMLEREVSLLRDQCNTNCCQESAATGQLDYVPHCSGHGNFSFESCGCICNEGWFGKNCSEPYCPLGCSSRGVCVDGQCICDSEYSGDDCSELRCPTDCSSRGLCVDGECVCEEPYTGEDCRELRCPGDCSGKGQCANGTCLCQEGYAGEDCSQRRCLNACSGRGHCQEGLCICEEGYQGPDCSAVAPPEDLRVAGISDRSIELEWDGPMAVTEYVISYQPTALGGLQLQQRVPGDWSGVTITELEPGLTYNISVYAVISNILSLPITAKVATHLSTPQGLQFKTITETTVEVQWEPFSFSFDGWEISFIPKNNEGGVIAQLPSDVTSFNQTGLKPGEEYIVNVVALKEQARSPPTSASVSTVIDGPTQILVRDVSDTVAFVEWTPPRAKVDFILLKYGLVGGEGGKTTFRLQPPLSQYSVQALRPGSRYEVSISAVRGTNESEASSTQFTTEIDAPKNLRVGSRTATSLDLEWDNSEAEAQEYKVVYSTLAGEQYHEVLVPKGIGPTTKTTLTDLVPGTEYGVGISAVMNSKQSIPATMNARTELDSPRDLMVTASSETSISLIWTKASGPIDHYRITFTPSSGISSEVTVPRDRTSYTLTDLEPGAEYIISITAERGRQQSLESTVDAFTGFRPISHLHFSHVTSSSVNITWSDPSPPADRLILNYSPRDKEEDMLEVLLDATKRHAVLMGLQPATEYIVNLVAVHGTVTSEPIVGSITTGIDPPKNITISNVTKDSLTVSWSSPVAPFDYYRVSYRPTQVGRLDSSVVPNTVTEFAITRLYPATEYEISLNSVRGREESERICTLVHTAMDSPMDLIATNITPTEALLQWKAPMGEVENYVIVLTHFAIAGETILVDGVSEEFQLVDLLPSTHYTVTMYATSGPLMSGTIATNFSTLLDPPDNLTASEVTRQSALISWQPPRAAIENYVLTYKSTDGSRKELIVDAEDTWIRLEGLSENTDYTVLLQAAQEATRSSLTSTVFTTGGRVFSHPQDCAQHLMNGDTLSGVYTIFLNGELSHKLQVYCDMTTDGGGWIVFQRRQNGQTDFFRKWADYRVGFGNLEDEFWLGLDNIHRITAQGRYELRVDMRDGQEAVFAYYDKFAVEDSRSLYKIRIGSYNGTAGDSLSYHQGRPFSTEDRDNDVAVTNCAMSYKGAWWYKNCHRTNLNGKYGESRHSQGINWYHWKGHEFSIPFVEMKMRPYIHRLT

The chains behind the UniProt entries cited, without tags or fusion partners. Where a name states a change or a piece, a line headed by the entry shows the natural chain unless it says otherwise.
UniProt B9EKR1: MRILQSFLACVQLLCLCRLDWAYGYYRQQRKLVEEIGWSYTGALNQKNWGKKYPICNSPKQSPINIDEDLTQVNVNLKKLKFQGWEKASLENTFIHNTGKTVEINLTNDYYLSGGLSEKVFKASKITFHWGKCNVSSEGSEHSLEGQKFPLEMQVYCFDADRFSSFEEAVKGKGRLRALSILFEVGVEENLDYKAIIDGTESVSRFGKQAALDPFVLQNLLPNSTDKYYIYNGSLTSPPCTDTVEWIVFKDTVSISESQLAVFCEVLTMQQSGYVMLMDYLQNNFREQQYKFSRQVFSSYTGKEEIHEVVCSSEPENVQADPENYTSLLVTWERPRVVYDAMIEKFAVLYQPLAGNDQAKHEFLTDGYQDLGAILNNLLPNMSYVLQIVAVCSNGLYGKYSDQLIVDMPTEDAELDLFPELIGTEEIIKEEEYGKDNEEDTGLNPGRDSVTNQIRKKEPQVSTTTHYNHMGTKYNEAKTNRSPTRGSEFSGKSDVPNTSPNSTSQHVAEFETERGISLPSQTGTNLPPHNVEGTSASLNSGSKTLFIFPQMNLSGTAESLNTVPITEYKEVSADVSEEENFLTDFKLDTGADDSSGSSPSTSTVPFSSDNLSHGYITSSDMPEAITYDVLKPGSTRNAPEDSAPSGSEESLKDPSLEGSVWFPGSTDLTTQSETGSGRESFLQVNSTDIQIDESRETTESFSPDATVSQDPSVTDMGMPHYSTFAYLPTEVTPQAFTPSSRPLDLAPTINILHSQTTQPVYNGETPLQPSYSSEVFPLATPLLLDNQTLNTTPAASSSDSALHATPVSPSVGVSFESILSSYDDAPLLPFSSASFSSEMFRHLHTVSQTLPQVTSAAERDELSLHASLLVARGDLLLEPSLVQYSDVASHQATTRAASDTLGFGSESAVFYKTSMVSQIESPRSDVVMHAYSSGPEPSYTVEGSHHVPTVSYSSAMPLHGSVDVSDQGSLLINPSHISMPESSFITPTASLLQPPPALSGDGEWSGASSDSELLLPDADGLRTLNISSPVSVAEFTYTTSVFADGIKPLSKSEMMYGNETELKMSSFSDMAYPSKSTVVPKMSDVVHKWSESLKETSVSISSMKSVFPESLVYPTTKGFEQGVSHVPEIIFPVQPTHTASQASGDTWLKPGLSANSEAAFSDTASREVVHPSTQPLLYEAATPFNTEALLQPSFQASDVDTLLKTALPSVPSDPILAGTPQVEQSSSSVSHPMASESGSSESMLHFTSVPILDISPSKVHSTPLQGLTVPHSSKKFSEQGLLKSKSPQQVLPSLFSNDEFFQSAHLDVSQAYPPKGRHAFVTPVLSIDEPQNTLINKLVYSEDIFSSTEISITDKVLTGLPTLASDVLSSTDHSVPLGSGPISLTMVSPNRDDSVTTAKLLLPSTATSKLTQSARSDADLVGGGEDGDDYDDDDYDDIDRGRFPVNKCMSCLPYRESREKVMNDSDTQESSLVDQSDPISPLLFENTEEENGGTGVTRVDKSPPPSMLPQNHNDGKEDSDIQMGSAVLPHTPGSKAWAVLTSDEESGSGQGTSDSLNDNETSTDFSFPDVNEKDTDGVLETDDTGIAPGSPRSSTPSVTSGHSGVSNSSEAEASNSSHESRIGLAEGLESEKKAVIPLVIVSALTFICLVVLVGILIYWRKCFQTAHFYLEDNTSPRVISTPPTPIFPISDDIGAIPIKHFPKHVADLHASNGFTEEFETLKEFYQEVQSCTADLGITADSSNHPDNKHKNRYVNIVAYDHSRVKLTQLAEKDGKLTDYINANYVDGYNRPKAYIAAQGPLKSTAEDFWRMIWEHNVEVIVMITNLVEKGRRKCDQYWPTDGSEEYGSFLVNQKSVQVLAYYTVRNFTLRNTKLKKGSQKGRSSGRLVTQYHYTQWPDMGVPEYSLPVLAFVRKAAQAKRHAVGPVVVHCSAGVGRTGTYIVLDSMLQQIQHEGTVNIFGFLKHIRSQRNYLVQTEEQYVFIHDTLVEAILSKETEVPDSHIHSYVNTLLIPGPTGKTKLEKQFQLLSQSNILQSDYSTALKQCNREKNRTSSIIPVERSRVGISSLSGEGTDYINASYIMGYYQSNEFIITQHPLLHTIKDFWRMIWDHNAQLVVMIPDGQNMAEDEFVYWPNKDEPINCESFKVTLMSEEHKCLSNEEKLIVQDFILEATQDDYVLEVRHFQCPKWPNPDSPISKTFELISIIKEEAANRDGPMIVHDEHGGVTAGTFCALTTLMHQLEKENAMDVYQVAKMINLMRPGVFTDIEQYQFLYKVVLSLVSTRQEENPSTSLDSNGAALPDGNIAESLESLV

[5] = target: mouse PTP-ζ (PTP-β/ζ) of mouse brain membrane fractions (mouse) (UniProt B9EKR1); assay: affinity purification from mouse brain membrane lysate, LC-MS/MS
[6] = target: mouse PTP-ζ (PTP-β/ζ) of mouse brain membrane fractions (mouse) (UniProt B9EKR1); assay: mIL-34/anti-mIL-34 bead or biotinylated mIL-34 pull-down from mouse brain membrane lysate, silver stain, MS, western blot
[7] = target: T1, mouse tenascin-R (TN-R) of mouse brain membrane fractions (mouse); assay: as above
[8] = target: mouse PTP-ζ (PTP-β/ζ) of mouse brain membrane fractions (mouse) (UniProt B9EKR1); assay: pull-down from membrane lysates
[9] = target: T1, mouse tenascin-R (TN-R) of mouse brain membrane fractions (mouse); assay: pull-down / immunoprecipitation from OG-solubilized mouse brain membrane fraction, western blot for TN-R (co-precipitation from a lysate, may be indirect) [panel A]
[10] = target: mouse PTP-ζ (PTP-β/ζ) of mouse brain membrane fractions (mouse) (UniProt B9EKR1); assay: co-immunoprecipitation with anti-PTP-ζ 3F8 from mouse brain membrane lysate with or without mIL-34, western blot
[11] = target: mouse PTP-ζ (PTP-β/ζ) of mouse brain membrane fractions (mouse) (UniProt B9EKR1); assay: co-immunoprecipitation of TN-R with PTP-ζ by anti-PTP-ζ 3F8 from mouse brain membrane fraction, western blot for TN-R [panel C]

Measured: binding

B1: mouse IL-34 (interleukin-34) (ligand, UniProt Q8R1R4 21-235, looked up)
chain: NENLEIWTLTQDKECDLTGYLRGKLQYKNRLQYMKHYFPINYRIAVPYEGVLRVANITRLQKAHVSERELRYLWVLVSLNATESVMDVLLEGHPSWKYLQEVQTLLENVQRSLMDVEIGPHVEAVLSLLSTPGLSLKLVRPKALLDNCFRVMELLYCSCCKQSPILKWQDCELPRLHPHSPGSLMQCTATNVYPLSRQTPTSLPGSPSSSHGSLP
modifications: biotinylated with EZ-Link Sulfo-NHS-LC-LC-Biotin in the neutravidin pull-down
not listed: [10] | [11]
binds: all other assays above

B2: mouse tenascin-R (TN-R) of mouse brain membrane fractions (protein)
chain: T1 sequence
binds: [10] | [11]
